At least one compound was matched to its structure with a doubt left.
Columns and labels:
Assay type in all cases: cell-based, human
[1] = system: Plk mRNA; assay: Detection of Plk mRNA level by RT-PCR; conditions: U937 cells, 100 nM, even at 12 hours
[2] = system: Plk protein; assay: Western blotting of Plk protein level after geldanamycin treatment
Protocol: The cells were lysed with TENSV buffer (Schulte, T. W., et al., J. Biol. Chem., 270, 24585-24588, 1995; Hutchison, K. A., et al., J. Biol. Chem., 267, 13952-13957, 1992) at 4° C. with sonication. The lysates were subjected to electrophoresis on an SDS polyacrylamide gel. Proteins were transferred to Immobilon PVDF membrane (Millipore) and immunoblotted with anti-Plk antibody (Zymed and Santa Cruz), anti-Hsp90 antibody (AC88; Stressgen), anti-GST antibody (Santa Cruz), anti-α-tubulin antibody (Amersham), or anti-Raf-1 antibody (Santa Cruz). Detection was performed with an enhanced chemiluminescence reagent (Pierce).
The immune complexes were collected by immunoprecipitation using anti-Plk antibody and electrophoresed on an SDS-polyacrylamide gel. […] Aliquots of cell lysates were immunoprecipitated with an anti-Plk or anti-Hsp90 antibody. In the same manner, aliquots of non-immunoprecipitated cell lysates were used for Western blotting.
Aliquots of cell lysates were immunoblotted with the indicated antibodies.

[3] = system: Raf-1; assay: Western blotting of Raf-1 protein level after geldanamycin treatment
[4] = system: Plk-Hsp90 complex; assay: Detection of Plk-Hsp90 complex by immunoprecipitation; conditions: U937 cells, 100 nM, 12 hours

COC1=C2C[C@@H](C)C[C@H](OC)[C@H](O)[C@@H](C)/C=C(\C)[C@H](OC(N)=O)[C@@H](OC)/C=C\C=C(/C)C(=O)NC(=CC1=O)C2=O [geldanamycin]
level of Plk mRNA [1]: did not alter
level of Plk ([2]; U937 cells (wild-type Plk), 100 nM): decreased the level of Plk
level of Plk ([2]; mutant Plk-expressing cells (Hep G2, A431, A549, and MKN74 cells)): did not decrease
protein level of Plk ([2]; wild-type Plk-expressing cells (Jurkat, HL-60, K562, and HeLa cells)): decreased
destabilization of Raf-1 ([3]; U937 cells, 100 nM, 12 hours): led to the destabilization of Raf-1
Raf-1 protein level ([3]; all cancer cell lines examined (FIG. 3)): marked reduction
Coprecipitation of Hsp90 with Plk [4]: disappeared
amount of Plk by immunoprecipitation [4]: one-half
